A weaker result is weaker than the reference pair of the same experiment. Where a protein sequence is shown, tags need not be part of it. For some of these results: For at least one entry, the source does not settle the construct or the ends of the probe. For some of these results: At least one verdict rests on a figure or table, not on a statement of the authors.
Tests used:
[1] = target: T1, RtcR CARF domain (UniProt Q8ZLH7); experiment: EMSA; conditions: 20 mM Tris-HCl pH 7.5, 50 mM NaCl, 1 mM MgCl2, 0.05% Tween 20, 1 mM ATP for RtcR, 30 min at 4 C then 30 min at room temperature, RNA 1 nM, recombinant protein, residues 1-188, label: 5'-32P; for binding result: 1 mM ATP, 0.5 uM protein, 2',3'-cyclic phosphate 3' end
T1 sequence (looked up): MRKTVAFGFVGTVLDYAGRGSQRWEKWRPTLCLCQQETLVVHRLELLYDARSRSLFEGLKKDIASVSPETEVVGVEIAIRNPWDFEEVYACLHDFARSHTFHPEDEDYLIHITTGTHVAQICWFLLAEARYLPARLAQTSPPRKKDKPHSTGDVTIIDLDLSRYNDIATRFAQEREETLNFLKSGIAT

[2] = target: T2, RtcR (full-length) (UniProt Q8ZLH7); experiment: EMSA; conditions: 20 mM Tris-HCl pH 7.5, 50 mM NaCl, 1 mM MgCl2, 0.05% Tween 20, 1 mM ATP for RtcR, 30 min at 4 C then 30 min at room temperature, RNA 1 nM, recombinant protein, residues 1-527
T2 sequence (looked up): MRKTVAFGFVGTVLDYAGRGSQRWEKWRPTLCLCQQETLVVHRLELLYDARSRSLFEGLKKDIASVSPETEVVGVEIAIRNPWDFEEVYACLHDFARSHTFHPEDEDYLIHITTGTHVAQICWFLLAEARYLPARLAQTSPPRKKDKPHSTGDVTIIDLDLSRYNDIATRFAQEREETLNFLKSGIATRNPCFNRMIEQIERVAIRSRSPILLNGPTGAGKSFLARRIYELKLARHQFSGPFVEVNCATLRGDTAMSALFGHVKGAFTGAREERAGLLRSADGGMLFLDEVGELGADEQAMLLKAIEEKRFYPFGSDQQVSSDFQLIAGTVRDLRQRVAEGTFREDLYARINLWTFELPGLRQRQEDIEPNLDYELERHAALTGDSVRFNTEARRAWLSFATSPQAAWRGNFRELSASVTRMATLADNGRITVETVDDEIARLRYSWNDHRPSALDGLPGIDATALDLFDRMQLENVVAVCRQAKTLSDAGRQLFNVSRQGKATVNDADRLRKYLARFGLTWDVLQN

[3] = target: T2, RtcR (full-length); experiment: size exclusion chromatography; conditions: ATP, 48 uM each, no 400 kDa complex, 160 kDa reduced; 3'-phosphate; 20 mM Tris-HCl pH 7.5, 50 mM NaCl, 1 mM MgCl2, 0.05% Tween 20; 1 mM ATP for RtcR; 30 min at 4 C then 30 min at room temperature; RNA 1 nM; recombinant protein; residues 1-527; label: 5'-32P (EMSA)
[4] = 1 mM ATP, 0.5 uM protein, 2',3'-cyclic phosphate 3' end, label: 5'-32P

Question: Does “CGGAUAGCUCAGUCGGUAGAGCAGGGGAUUGAA [tRNAPhe(GAA) 5' half, cyclic phosphate]” bind [1]?
Answer: binds more weakly

Question: Does “CGGAUAGCUCAGUCGGUAGAGCAGGGGAUUGAA [tRNAPhe(GAA) 5' half, cyclic phosphate]” bind [2, 4]?
Answer: binds more weakly

Question: Which results are given for “GCGGGAGUGGCGAAAUUGGUAGACGCACCAGAUU [tRNALeu(UAG)-AUU 5' half, cyclic phosphate]”?
Answer: binding result [1]: binds more weakly; binding result [2, 4]: binds more weakly

Question: Does “GCGGGAGUGGCGAAAUUGGUAGACGCACCAGAUUUA [tRNALeu(UAG)-UUA 5' half, cyclic phosphate]” bind [1]?
Answer: binds more weakly

Question: Does “GCGGGAGUGGCGAAAUUGGUAGACGCACCAGAUUUA [tRNALeu(UAG)-UUA 5' half, cyclic phosphate]” bind [2, 4]?
Answer: binds more weakly

Question: Which results are given for “GCGGGAGUGGCGAAAUUGGUAGACGCACCAGAUUUAG [tRNALeu(UAG) 5' half, after G of anticodon, 3'-OH]”?
Answer: half-maximal binding ([1]; 3'-OH): > 5 µM; binding result ([2]; 1 mM ATP, 3'-OH, label: 5'-32P): binds more weakly

Question: Does “GCGGGAGUGGCGAAAUUGGUAGACGCACCAGAUUUAG [tRNALeu(UAG) 5' half, after G of anticodon, 3'-phosphate]” bind [3]?
Answer: binds more weakly

Question: Does “GCGGGAGUGGCGAAAUUGGUAGACGCACCAGAUUUAG [tRNALeu(UAG) 5' half, after G of anticodon, 3'-phosphate]” bind ([2]; 1 mM ATP, barely detectable, 3'-phosphate, label: 5'-32P (EMSA))?
Answer: binds more weakly

Question: Does “GCGGGAGUGGCGAAAUUGGUAGACGCACCAGAUUUAG [tRNALeu(UAG) 5' half, after G of anticodon, cyclic phosphate]” bind ([2]; no ATP, 2',3'-cyclic phosphate 3' end, label: 5'-32P (EMSA))?
Answer: binds more weakly

Question: Which results are given for “GGGCGUAGUUCAAUUGGUAGAGCACCGGUCUCCA [tRNATrp(CCA) 5' half, cyclic phosphate]”?
Answer: binding result [1]: binds more weakly; binding result [2, 4]: binds more weakly
